Reference: the supplement of paper PMC3334620
Whole data set: some 33,000 sequences, median “E-score (-0.5 to 0.5)” near -8e-05, cut for the highest 2% near 0.23. The list shows a part of the results.

molecular target: T1, Nrg2 (UniProt P38082); assay: PBM E-score (8-mer binding enrichment) (E-score (-0.5 to 0.5)); higher = stronger / more preferred TF binding; settings: protein concentration: 100 nM; construct: GST-full length
T1 sequence: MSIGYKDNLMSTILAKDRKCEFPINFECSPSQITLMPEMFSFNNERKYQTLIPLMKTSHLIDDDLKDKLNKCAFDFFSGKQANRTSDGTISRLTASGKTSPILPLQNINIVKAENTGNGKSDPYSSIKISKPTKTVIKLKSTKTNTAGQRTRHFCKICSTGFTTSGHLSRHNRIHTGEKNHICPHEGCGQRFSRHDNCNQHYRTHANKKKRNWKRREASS
Experimental: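 Universal 'all 10-mer' protein binding microarrays (Agilent AMADID 015681) probed with GST-tagged S. cerevisiae TFs (full-length or DBD) made by in vitro transcription/translation (PURExpress), about 100-200 nM. Bound TF was detected with fluorescent anti-GST. Each ungapped 8-mer (which stands for itself and its reverse complement) is scored by the PBM enrichment score (E-score), a modified Wilcoxon-Mann-Whitney statistic from -0.5 to +0.5, computed with the Universal PBM Analysis Suite. Scale: above 0.35 generally sequence-specific binding.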

Sequence	PBM E-score
TACGACAA	0.204
CTACAGTC	-0.184
ATCGCGGA	0.0327
AGCCTTTA	-0.239
GTGCGAAC	-0.145
AGAAGATG	-0.0535
ACAGGTAT	0.134
ACCACTCC	-0.0901
AGATCCGG	-0.22
CCATGTTC	0.0851
GACGCGAA	-0.106
AAAAGAAT	0.187
ACGCACGT	-0.0699
ACGATAGA	-0.101
ACCTTTTC	-0.0658
TCTAAAAA	-0.192
CTGCAGTA	-0.184
TGAAAGAA	0.134
CCCGCCGC	0.158
GTTTGACA	0.0591
CGGGTAGA	-0.192
AAGGGGAG	-0.0858
CATCACCA	0.12
CCTCCACG	-0.345
ATTTGCGA	0.0669

Sequence	PBM E-score
GCCGCAGC	-0.0577
ACCTCATG	-0.171
GGAGAATA	0.123
GCGGGTGA	0.0623
GTTTTAAA	0.122
CGTGCGGC	-0.00739
CAGAAGCG	0.112
ACCGTAGC	-0.169
GTGTCCAA	0.0631
GTAATTAC	0.14
TAGTTGCA	0.121
CGTCAACC	-0.204
GATATTTA	-0.00686
CCACGACA	-0.0789
CAGGGAGG	-0.0425
CTGTTATC	0.0631
ACGCTGGA	0.00129
AAACGTCA	-0.103
CCACTACG	-0.0895
GGTGGGCA	-0.042
GAGACAGA	0.14
ATTCGGTC	0.0208
CAACGCGA	0.164
GTTGGCCA	-0.0399
GAACGAGA	0.016

Sequence	PBM E-score
ACCGCGCA	0.11
ACGGACGC	-0.0737
ATCATCAG	0.0405
TATGTAAA	0.103
CCGGCGCG	-0.0793
CGGTTGGA	-0.0354
AACAAGCA	0.101
CCGCTTCG	-0.259
AGTATCAA	0.225
ATTGCAGG	0.158
TTTACAAA	0.0163
AGATGGTG	-0.0597
ATTGAAAT	0.161
CGCAAAAC	0.0615
ACTGCACT	-0.00829
CACGAATG	0.156
CATGACCG	-0.108
CTTGAGAC	-0.0469
ATAGGTAA	0.102
AGACCTCT	-0.181
ACGCCTTC	-0.136
AGACAGCT	0.12
AGTTAATA	0.145
GCACCCGC	-0.0112
CTCACCGC	-0.0705

Sequence	PBM E-score
CGAATCGC	-0.0917
AGGGTGAT	0.143
ATCCTGCG	-0.109
CATTATTC	0.133
TCCTTCCA	-0.237
GGGAAGAA	-0.136
ATAGGTCG	0.0448
ACACAAGG	-0.0552
CATCGTCG	-0.00682
ACTGCACA	-0.0855
ATGCCCAT	-0.093
CGAAGACC	0.0649
CTTTGAGC	-0.135
ATCCCCGG	-0.0668
AGTCGCCA	-0.129
CTCTTAAG	0.00878
GTATTCAC	0.131
TCTCGTAA	0.0488
ATGCTACG	0.0764
AAACGTAC	-0.0531
CCCAGTCG	-0.143
GTTCTGCA	0.0907
ATACGTAG	0.0138
GAGCATAA	0.141
AAATTTAA	0.0888

Sequence	PBM E-score
AATTTCTG	0.0538
ACTCAGCC	-0.112
CCGTGCTA	-0.188
ACGAGCTG	0.215
CCATAGGC	-0.133
CTTCTGAC	-0.105
CAAGCGCA	0.363
ATCACAGG	-0.0499
ACATGAAC	0.0132
TGCTCCAA	0.0197
CCACCAAC	-0.0118
TAAAGACA	-0.014
GAATGCTC	-0.0761
CGCCTCTC	-0.318
CAGGCTGA	-0.156
CTCATAAC	-0.0907
ATGACAAT	0.172
ACCGGCGT	-0.0447
ATGAATGC	0.13
TCGCTACA	-0.251
ACGCACTC	-0.0434
AAACTTGA	-0.027
AGTAGCAT	0.0324
AAGACTCA	-0.249
AGTTGCAA	0.119

Sequence	PBM E-score
GCCCCCCA	-0.469
ATGCTGCA	-0.0148
ACTTTTCT	-0.0205
GCTACAGC	0.049
CACACAAC	0.0726
ACTGCCGA	0.148
AAACAGTT	0.0716
GATTGGCC	-0.00877
TAACTAGA	0.256
AATAATGG	0.136
TGTAAGAA	0.062
CAATCACG	0.0288
ATAAACAG	0.0593
GGTAGATA	-0.00158
CGGTTATC	-0.102
ACTGAATA	0.0684
AACCCGCT	-0.126
CTTAGGTA	-0.0168
CGAGGTAA	0.013
TCCGGCAA	-0.0255
AGAGACCA	-0.0477
AACGACTA	-0.00846
ATGATACA	0.182
GGCGTAAC	-0.192
AAATACTT	0.0648

Sequence	PBM E-score
ACATACGC	0.0681
CTATGGGA	-0.0453
AAGTGCCC	-0.0791
ACCTTTCA	-0.0238
ACGCGGCG	0.0199
GACGATCC	0.0514
GTCCTAGA	-0.201
TGACGTCA	0.279
AAACCATG	0.0105
GAACTACC	0.0502
ATCATAGC	0.0417
AGAACAGC	0.0639
CTAATCTA	0.026
CTGCTGAC	0.0401
GAACACGC	0.0886
ACGCTCAC	0.046
GTCAGATA	-0.0646
GATACAGC	-0.0962
CTGATTGC	0.0232
TCTTAAGA	0.139
CTCGGAGA	0.0113
AAATCGGG	0.151
ATATCTAA	0.148
CTCCAATC	-0.126
ATATTGTC	0.178

70 successive records already listed:
Sequence	PBM E-score
CTTCTGAC	-0.105
CAAGCGCA	0.363
ATCACAGG	-0.0499
ACATGAAC	0.0132
TGCTCCAA	0.0197
CCACCAAC	-0.0118
TAAAGACA	-0.014
GAATGCTC	-0.0761
CGCCTCTC	-0.318
CAGGCTGA	-0.156
CTCATAAC	-0.0907
ATGACAAT	0.172
ACCGGCGT	-0.0447
ATGAATGC	0.13
TCGCTACA	-0.251
ACGCACTC	-0.0434
AAACTTGA	-0.027
AGTAGCAT	0.0324
AAGACTCA	-0.249
AGTTGCAA	0.119
GCCCCCCA	-0.469
ATGCTGCA	-0.0148
ACTTTTCT	-0.0205
GCTACAGC	0.049
CACACAAC	0.0726
ACTGCCGA	0.148
AAACAGTT	0.0716
GATTGGCC	-0.00877
TAACTAGA	0.256
AATAATGG	0.136
TGTAAGAA	0.062
CAATCACG	0.0288
ATAAACAG	0.0593
GGTAGATA	-0.00158
CGGTTATC	-0.102
ACTGAATA	0.0684
AACCCGCT	-0.126
CTTAGGTA	-0.0168
CGAGGTAA	0.013
TCCGGCAA	-0.0255
AGAGACCA	-0.0477
AACGACTA	-0.00846
ATGATACA	0.182
GGCGTAAC	-0.192
AAATACTT	0.0648
ACATACGC	0.0681
CTATGGGA	-0.0453
AAGTGCCC	-0.0791
ACCTTTCA	-0.0238
ACGCGGCG	0.0199
GACGATCC	0.0514
GTCCTAGA	-0.201
TGACGTCA	0.279
AAACCATG	0.0105
GAACTACC	0.0502
ATCATAGC	0.0417
AGAACAGC	0.0639
CTAATCTA	0.026
CTGCTGAC	0.0401
GAACACGC	0.0886
ACGCTCAC	0.046
GTCAGATA	-0.0646
GATACAGC	-0.0962
CTGATTGC	0.0232
TCTTAAGA	0.139
CTCGGAGA	0.0113
AAATCGGG	0.151
ATATCTAA	0.148
CTCCAATC	-0.126
ATATTGTC	0.178

Next records

Sequence	PBM E-score
CAGACACG	-0.234
GCCCAACC	0.0486
AACGTGTG	-0.227
ATGCTAAG	-0.00385
AAGAGCCT	-0.291
CGGAAACG	-0.0114
AGTGAGGG	-0.103
CTCCAGTC	-0.0457
ACCTTTTG	-0.157
ACGGCATA	0.201
ATCCACTC	0.16
TCGAGCCA	-0.0891
AACAGTTG	-0.0713
ACCCGCCT	-0.192
ATTAGCGC	0.144
AAGGACTC	-0.0561
AAACGTAG	-0.0255
AAGGAGAG	-0.23
GCAATTAA	0.0965
ACGTGATC	-0.0893
ATGTTCGG	0.157
CAAACATA	0.0325
AGACCAAA	0.0133
CTATACTA	0.111
CTTCGTAC	-0.0544

Sequence	PBM E-score
GAATCCGA	0.0398
GATGTGGA	0.0477
AGGTGAAC	0.077
ACCTAACT	0.149
CTACAAAC	0.0676
ATCATTCC	0.132
CCTCAACG	-0.159
GACCCCCA	-0.399
CTAGCCAG	-0.2
AAGCACAA	0.06
CAGCATTA	-0.0471
AATCTCGC	0.235
AACTTTTG	0.128
GGCTATAC	-0.126
GGACCTGA	-0.0245
AAAGCTAA	-0.0819
ATGCAGGG	0.181
AGGTCCGC	-0.0894
CGATCGCA	0.215
CGCTGGGC	-0.112
ACAAATAA	0.152
CCACTCGC	-0.0342
CAGTCGGG	-0.132
TACGCACA	0.212
AGTAATCA	0.0106

Sequence	PBM E-score
ATCCGTTA	0.137
AGGATGCA	-0.0419
GAACGCAC	0.0904
ACGTCCTA	0.0273
CAAAGACA	-0.015
TATTCGGA	0.189
TGGGCGAA	0.0579
CGACCGAC	-0.0544
GAACCGGA	0.0277
CCTGGTTA	-0.00802
ATATCCGG	0.0451
ACAAATTG	0.185
TCTCAGCA	-0.0563
GTACGCGA	0.0455
GCTATCAC	0.065
TGGCCACA	0.15
TACGGTGA	0.0911
CGCCCTCC	-0.199
AGCGGGCC	-0.0525
CTCTGCCC	0.00382
AAGGACTA	-0.123
GCCAGGGC	0.0111
CGTTCACA	0.0411
CTCAGCAG	-0.101
AAGGTTGA	-0.0333

Sequence	PBM E-score
CCGAACAA	0.0547
CACCAGGA	-0.0256
AGGGGGAA	-0.296
AATCTAGT	0.0347
ACTTCTTC	-0.0215
GAGCAAGC	-0.089
AACTACAG	0.0408
CCCCTCTA	-0.148
CCTGCTGA	0.171
AAGGTCAC	-0.0104
TCAGAAAA	-0.0216
CGTATTAC	-0.0295
GAGTTTAA	0.0623
GACCCTAA	0.237
CGCTTGAC	0.0173
CGGATGAC	-0.0636
CTCTGAAC	-0.14
CGCATTGA	0.0701
ATTCAGGG	0.367
ACTAGCGG	0.00229
GGTGAAGA	-0.0891
ATCGGACG	-0.0401
CAAGGAAA	-0.0239
TAGAGTCA	-0.222
GTTTTCCA	0.116

Sequence	PBM E-score
ATGCTCCC	-0.18
CGCGACTA	0.144
GGCCCTGA	0.24
TATGTTAA	-0.127
CGCTCTAA	0.00204
GACGAGAC	0.0386
AAAAGACT	-0.269
AATGTCAT	-0.0736
TACTTGGA	0.151
ATACAGCA	0.0568
CAGCCGGG	-0.173
GTGACGGA	0.0626
CGCAGGAC	-0.0809
CATATATG	0.0123
TAGGCTGA	-0.1
AAAAGTTG	0.127
TAGGGCCA	-0.0846
ACCGTCAG	-0.0681
CAAACTCA	0.0998
CGCCAATC	-0.0209
CCCACTCG	-0.102
ACCTTTCC	-0.0859
ATTAGTTC	0.158
CGAGGGGC	-0.109
ATCAAATC	0.145

Sequence	PBM E-score
CAGGACAG	0.0519
GAGGCCAA	0.0475
CCGATTAC	0.00664
AATTGAGA	0.0993
TACCACTA	-0.00485
AAGAAACA	0.195
ACCAGTAT	0.0923
GGGCACCC	-0.137
AATATCGT	0.131
GTAGACCA	-0.11
ATTGGATA	-0.00533
CGTTTCAA	-0.00866
TGCTAACA	-0.127
ATCTTATG	0.0237
ACCTGGCA	-0.0498
AAATTTCA	-0.115
ACTGGGTA	0.051
AGGGCAGG	0.00494
CGGGAGGA	0.0906
GATGGCGA	0.0429
AGAATACA	0.149
GAGACCAA	0.241
CTACAGCA	0.032
CAATGACA	0.0886
GATCTTCA	0.0364

Sequence	PBM E-score
GCCTTTTA	-0.0752
ACTAAAAA	0.0129
AATTAAGA	0.0656
CGTTCTAG	0.123
CTAGACAG	0.0211
CTCGAAAG	0.0195
ACTCCCAA	0.0134
ACTAGTAC	0.027
CGATCACA	0.113
GAGACATA	0.0701
GCATTCAA	0.0965
GCTGTTGA	0.0699
CCCTAATA	0.202
GTGTGCAA	0.0196
ACGATGAG	0.0919
ATATTACG	0.214
CGGACGCA	0.0898
CCACCCCA	-0.035
CATAAGTA	0.076
